PubChem BioAssay AID1508588 | Peter MacCallum Cancer Centre, 2020

Test: 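Knock-downs boosting vemurafenib effects on melanoma cell growth or lactate release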 (primary screen)
Cell system: human WM266.4 melanoma cells (BRAF V600 mutant)
Reagent: siRNA pool against human genes, 40 nM
Time to read-out: 96 h from transfection to read-out
Challenge: vemurafenib 300 nM (about IC25), added 48 h after transfection, for 48 h; comparison arm got DMSO vehicle only
Measured: 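Ratios to non-targeting siRNA for cell gain, counted as DAPI nuclei after minus before drug and averaged over two replicates, and for absorbance-read medium lactate per cell; both binned into fold-change classes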
Direction: cell gain with vemurafenib: higher = more cell gain than with non-targeting siRNA; lactate per cell with vemurafenib: higher = more lactate made per cell
Rule for the call: 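Enhancement is called by pairing each knock-down's vehicle-arm and drug-arm fold-change classes for viability or glycolysis; which class combinations qualify is not given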
Meaning of the calls: active = enhances vemurafenib effect; inactive = no enhancement seen
In all, the deposit lists about 18,000 reagents; this is an unselected part. 790 of them (4.4%) were called active. 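Calls rest on a combination of fold-change classes in drug and vehicle arms, not all shown here.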 Unmarked entries are inactive.

What did the screen give for PHF13 (PHD finger protein 13)?
cell gain with vemurafenib: 1.04; lactate per cell with vemurafenib: 0.64

What did the screen give for PXDNL (peroxidasin like)?
cell gain with vemurafenib: 0.43; lactate per cell with vemurafenib: 1.26

For PDCD6 (programmed cell death 6), what does the deposit list?
cell gain with vemurafenib: 0.56; lactate per cell with vemurafenib: 1.08

How did the screen score CWF19L2 (CWF19 like cell cycle control factor 2)?
cell gain with vemurafenib: 0.48; lactate per cell with vemurafenib: 0.9

For TXK (TXK tyrosine kinase), what was measured?
cell gain with vemurafenib: 0.53; lactate per cell with vemurafenib: 0.7

With MRPL58 (mitochondrial ribosomal protein L58), what was measured?
cell gain with vemurafenib: 0.06; lactate per cell with vemurafenib: 2.02

How did the screen score CYGB (cytoglobin)?
cell gain with vemurafenib: 0.68; lactate per cell with vemurafenib: 0.82

With LIG3 (DNA ligase 3), how do the results read?
cell gain with vemurafenib: 0.3; lactate per cell with vemurafenib: 1.43

With SPO11 (SPO11 initiator of meiotic double strand breaks), how do the results read?
cell gain with vemurafenib: 1.09; lactate per cell with vemurafenib: 0.46

For FER1L5 (fer-1 like family member 5), what was measured?
cell gain with vemurafenib: 0.7; lactate per cell with vemurafenib: 1.67

What did the screen give for WDR37 (WD repeat domain 37)?
cell gain with vemurafenib: 0.47; lactate per cell with vemurafenib: 0.5

Just “lactate per cell with vemurafenib” (3 entries from above):
CWF19L2 (CWF19 like cell cycle control factor 2)	0.9
TXK (TXK tyrosine kinase)	0.7
MRPL58 (mitochondrial ribosomal protein L58)	2.02

Continued:
How did the screen score TAB3 (TGF-beta activated kinase 1 (MAP3K7) binding protein 3)?
cell gain with vemurafenib: 1.18; lactate per cell with vemurafenib: 0.87

With GFRA1 (GDNF family receptor alpha 1), how do the results read?
cell gain with vemurafenib: 0.59; lactate per cell with vemurafenib: 0.64

For KHK (ketohexokinase), what does the deposit list?
cell gain with vemurafenib: 0.04; lactate per cell with vemurafenib: 1.46

For KBTBD11 (kelch repeat and BTB domain containing 11), how do the results read?
cell gain with vemurafenib: 0.86; lactate per cell with vemurafenib: 1.14

Which result is listed for TMEM45B (transmembrane protein 45B)?
cell gain with vemurafenib: 0.44; lactate per cell with vemurafenib: 0.8

Which result is listed for EP300 (EP300 lysine acetyltransferase)?
cell gain with vemurafenib: 0.2; lactate per cell with vemurafenib: 1.96

With GRM5 (glutamate metabotropic receptor 5), how do the results read?
cell gain with vemurafenib: 0.25; lactate per cell with vemurafenib: 0.86

For PEX13 (peroxisomal biogenesis factor 13), what was measured?
cell gain with vemurafenib: 0.57; lactate per cell with vemurafenib: 0.58

With RFX4 (regulatory factor X4), what does the deposit list?
cell gain with vemurafenib: 0.78; lactate per cell with vemurafenib: 1.23

What is on record for NDUFS4 (NADH:ubiquinone oxidoreductase subunit S4)?
cell gain with vemurafenib: 1.38; lactate per cell with vemurafenib: 0.57

For ELF4 (E74 like ETS transcription factor 4), what does the deposit list?
cell gain with vemurafenib: 0.67; lactate per cell with vemurafenib: 2.35

What is on record for C1QL1 (complement C1q like 1)?
cell gain with vemurafenib: 0.33; lactate per cell with vemurafenib: 1.5

Which result is listed for SPR (sepiapterin reductase)?
cell gain with vemurafenib: 0.31; lactate per cell with vemurafenib: 1.72

For LRFN3, what does the deposit list?
cell gain with vemurafenib: 0.05; lactate per cell with vemurafenib: 1.4

What did the screen give for YAF2 (YY1 associated factor 2)?
cell gain with vemurafenib: 0.47; lactate per cell with vemurafenib: 1.36

With PTK2B (protein tyrosine kinase 2 beta), how do the results read?
cell gain with vemurafenib: 0.31; lactate per cell with vemurafenib: 1.07
